The experiment has as its target T1, native human CD81 on Raji cells (human) (UniProt P60033).
T1 sequence: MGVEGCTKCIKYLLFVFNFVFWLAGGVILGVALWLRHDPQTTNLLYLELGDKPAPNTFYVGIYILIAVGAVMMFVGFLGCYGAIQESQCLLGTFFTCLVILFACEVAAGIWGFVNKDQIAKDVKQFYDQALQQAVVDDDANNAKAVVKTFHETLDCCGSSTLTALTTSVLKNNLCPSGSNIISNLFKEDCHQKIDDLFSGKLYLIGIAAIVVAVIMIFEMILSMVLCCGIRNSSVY
As to the kind of experiment: flow cytometry on cells; purified HCV-E2 (4 µg), pre-incubated with 1-400 µM of the small molecule 281816 for 25 min at RT, added to Raji cells for 25 min; detected with mouse anti-E2 H53 and FITC anti-mouse; MFI; only the binder purified.

By UniProt entry, the sequences of proteins in these tests, tags left out. Residues count along the entry.
UniProt Q9WMX2, residues 384-656: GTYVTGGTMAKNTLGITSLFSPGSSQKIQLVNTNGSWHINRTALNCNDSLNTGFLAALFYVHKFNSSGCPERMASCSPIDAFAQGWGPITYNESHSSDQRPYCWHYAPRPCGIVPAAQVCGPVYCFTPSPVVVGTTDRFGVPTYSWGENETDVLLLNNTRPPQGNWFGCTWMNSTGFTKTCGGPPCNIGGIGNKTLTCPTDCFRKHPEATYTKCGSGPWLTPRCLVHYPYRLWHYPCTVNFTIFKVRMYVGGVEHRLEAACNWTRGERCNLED

These are yes or no findings as the source states them, for the method shown. Some entries that bind do so weakly or less than the wild type.

With “HCV E2 protein Con1 eE2 (envelope protein 2 ectodomain, amino acids 384-656) (from UniProt Q9WMX2 384-656) (domain or fragment)”, the binding entry was “binds”.

These data come from PMC4214736, “Identification of a Novel Drug Lead That Inhibits HCV Infection and Cell-to-Cell Transmission by Targeting the HCV E2 Glycoprotein” (PLoS ONE, 2014).
